Results are given in words; binding and its absence hold for the method and conditions named. Binding seen in cells or lysates may run through a third protein. Binding calls can cover weak binding; strength is not graded here.

This assay addresses GST::PPS, GST fusion protein containing the C-terminal end of PPS (amino acids 1370-2016) (Drosophila). The assay is described as follows: pull-down; GST fusion proteins bound to glutathione sepharose beads, incubated with crude extracts of 3-8 hour embryos in NET buffer (150 mM NaCl, 50 mM Tris pH 7.5, 5 mM EDTA) with 0.5% NP-40; SNF detected by Western blot; only the target purified.

B1: Sans-fille (SNF), endogenous in embryo extracts (protein, UniProt P43332 1-216)
chain: MEMLPNQTIYINNLNEKIKKEELKKSLYAIFSQFGQILDIVALKTLKMRGQAFVIFKEIGSASNALRTMQGFPFYDKPMQIAYSKSDSDIVAKIKGTFKERPKKVKPPKPAPGTDEKKDKKKKPSSAENSNPNAQTEQPPNQILFLTNLPEETNEMMLSMLFNQFPGFKEVRLVPNRHDIAFVEFTTELQSNAAKEALQGFKITPTHAMKITFAKK
Consider B1, for which the binding result is reported as “binds”.

The values are drawn from PMC2832672.
